Source: the supplement of paper PMC11732987, “Enantioselective OTUD7B fragment discovery through chemoproteomics screening and high-throughput optimisation” (Communications Chemistry, 2025)
The list shows a part of the results. The data scatter; read single values as rough.

Chains of the proteins cited; added tags and fusions are not shown. Lines headed by an entry give the natural chain unless they say otherwise; changes in a name come on top. Residues count along the entry.
UniProt Q13907: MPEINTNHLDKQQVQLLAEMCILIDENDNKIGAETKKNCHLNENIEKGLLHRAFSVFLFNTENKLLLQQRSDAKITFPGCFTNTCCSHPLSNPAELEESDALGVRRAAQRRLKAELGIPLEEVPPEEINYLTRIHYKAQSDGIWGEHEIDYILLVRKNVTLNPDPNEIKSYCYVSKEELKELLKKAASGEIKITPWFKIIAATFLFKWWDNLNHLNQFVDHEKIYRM
UniProt Q9NWY4: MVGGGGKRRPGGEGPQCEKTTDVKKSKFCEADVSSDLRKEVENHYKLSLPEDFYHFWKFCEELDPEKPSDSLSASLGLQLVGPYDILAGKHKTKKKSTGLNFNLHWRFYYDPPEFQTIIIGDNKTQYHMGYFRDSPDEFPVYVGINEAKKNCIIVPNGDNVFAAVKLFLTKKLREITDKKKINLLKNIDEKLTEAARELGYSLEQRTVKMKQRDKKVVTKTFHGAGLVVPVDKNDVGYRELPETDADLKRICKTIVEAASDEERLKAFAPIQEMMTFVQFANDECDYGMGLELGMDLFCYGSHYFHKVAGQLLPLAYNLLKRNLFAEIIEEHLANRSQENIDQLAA
UniProt P17181: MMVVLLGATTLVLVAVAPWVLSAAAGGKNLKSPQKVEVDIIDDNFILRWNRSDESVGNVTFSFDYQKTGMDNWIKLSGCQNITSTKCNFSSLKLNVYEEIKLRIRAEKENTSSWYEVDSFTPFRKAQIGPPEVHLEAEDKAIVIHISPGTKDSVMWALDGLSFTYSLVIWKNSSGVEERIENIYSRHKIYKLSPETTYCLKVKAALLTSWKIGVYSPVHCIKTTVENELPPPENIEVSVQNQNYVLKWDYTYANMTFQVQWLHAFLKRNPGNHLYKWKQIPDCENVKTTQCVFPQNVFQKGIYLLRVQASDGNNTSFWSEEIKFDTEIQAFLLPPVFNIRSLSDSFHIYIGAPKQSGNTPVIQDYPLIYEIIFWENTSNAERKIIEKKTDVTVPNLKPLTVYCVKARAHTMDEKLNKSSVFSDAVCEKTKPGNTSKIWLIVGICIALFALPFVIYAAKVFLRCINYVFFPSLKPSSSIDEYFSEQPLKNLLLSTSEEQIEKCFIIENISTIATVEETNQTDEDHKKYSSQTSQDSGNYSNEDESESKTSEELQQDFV
UniProt Q96F46, 626-649: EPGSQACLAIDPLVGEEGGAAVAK
UniProt Q9NSE4: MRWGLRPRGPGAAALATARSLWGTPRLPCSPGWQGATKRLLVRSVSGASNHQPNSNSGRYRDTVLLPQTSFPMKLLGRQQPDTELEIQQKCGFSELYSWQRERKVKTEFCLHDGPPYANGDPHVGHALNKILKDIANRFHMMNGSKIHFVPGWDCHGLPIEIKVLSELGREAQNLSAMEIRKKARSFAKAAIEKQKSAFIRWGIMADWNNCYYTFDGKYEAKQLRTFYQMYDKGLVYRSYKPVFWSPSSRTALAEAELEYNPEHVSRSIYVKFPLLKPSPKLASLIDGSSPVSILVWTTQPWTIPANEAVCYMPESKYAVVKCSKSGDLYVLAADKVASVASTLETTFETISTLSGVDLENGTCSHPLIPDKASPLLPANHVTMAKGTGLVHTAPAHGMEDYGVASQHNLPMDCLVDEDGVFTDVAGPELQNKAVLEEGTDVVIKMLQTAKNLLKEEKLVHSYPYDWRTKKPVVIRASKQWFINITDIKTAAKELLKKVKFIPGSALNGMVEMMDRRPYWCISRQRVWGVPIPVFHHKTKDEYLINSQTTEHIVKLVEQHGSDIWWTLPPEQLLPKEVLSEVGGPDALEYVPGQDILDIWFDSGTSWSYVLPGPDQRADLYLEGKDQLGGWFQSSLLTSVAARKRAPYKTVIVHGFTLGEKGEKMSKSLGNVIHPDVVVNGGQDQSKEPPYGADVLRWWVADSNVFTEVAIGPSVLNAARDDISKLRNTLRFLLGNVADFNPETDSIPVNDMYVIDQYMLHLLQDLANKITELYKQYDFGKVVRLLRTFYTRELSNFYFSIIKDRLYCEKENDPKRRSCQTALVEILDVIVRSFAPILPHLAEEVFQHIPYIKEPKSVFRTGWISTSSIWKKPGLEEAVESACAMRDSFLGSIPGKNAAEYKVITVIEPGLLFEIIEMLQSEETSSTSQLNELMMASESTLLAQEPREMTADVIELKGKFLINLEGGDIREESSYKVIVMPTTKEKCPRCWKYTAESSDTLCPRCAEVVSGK
UniProt Q9H0C8: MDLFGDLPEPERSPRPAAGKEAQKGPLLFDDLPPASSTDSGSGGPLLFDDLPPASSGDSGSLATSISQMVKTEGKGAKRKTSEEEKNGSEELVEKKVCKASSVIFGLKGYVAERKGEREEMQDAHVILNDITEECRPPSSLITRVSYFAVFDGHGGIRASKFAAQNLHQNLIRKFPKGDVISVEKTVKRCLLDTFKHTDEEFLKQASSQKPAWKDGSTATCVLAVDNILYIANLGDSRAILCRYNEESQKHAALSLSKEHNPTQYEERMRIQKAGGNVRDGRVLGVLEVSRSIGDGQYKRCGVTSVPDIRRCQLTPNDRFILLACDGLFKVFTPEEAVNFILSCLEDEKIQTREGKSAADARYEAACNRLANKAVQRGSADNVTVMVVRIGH
UniProt P10809: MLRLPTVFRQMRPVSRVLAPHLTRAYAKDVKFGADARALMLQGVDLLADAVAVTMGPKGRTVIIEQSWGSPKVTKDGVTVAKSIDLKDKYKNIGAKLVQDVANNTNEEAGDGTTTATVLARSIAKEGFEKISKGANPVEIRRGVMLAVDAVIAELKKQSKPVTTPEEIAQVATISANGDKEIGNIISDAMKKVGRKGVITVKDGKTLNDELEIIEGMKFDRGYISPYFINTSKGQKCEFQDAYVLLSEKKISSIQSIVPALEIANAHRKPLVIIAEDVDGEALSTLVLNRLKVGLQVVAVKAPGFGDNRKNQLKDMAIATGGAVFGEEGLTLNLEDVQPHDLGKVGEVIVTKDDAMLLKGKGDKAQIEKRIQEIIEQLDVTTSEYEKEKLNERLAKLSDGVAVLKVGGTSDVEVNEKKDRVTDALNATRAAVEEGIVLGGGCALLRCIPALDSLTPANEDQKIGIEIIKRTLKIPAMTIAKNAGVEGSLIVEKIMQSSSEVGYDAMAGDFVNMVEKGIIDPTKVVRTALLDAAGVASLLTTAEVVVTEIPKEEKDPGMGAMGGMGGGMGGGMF
UniProt O60921: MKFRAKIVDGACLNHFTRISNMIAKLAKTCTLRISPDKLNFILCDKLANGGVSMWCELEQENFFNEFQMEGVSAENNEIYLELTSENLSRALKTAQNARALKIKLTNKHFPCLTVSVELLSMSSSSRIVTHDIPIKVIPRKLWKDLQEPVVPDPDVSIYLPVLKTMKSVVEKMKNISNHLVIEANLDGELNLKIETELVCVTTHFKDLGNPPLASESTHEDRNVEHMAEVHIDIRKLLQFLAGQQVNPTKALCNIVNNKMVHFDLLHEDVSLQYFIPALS
UniProt Q9NZI8: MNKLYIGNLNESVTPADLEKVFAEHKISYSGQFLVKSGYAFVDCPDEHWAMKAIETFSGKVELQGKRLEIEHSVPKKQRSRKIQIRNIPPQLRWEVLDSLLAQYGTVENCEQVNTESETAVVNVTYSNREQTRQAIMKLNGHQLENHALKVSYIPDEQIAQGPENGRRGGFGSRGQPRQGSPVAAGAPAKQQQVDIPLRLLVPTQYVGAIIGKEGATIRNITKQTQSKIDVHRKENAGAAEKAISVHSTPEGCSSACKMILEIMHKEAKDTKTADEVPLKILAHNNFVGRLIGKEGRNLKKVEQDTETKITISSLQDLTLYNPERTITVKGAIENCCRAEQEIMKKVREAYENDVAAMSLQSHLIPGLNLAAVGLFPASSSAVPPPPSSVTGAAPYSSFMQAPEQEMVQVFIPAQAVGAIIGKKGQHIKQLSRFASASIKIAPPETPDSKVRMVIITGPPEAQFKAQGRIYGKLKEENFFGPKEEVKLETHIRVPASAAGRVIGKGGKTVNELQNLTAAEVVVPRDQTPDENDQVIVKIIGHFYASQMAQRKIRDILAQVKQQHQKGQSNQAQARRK
UniProt O15357: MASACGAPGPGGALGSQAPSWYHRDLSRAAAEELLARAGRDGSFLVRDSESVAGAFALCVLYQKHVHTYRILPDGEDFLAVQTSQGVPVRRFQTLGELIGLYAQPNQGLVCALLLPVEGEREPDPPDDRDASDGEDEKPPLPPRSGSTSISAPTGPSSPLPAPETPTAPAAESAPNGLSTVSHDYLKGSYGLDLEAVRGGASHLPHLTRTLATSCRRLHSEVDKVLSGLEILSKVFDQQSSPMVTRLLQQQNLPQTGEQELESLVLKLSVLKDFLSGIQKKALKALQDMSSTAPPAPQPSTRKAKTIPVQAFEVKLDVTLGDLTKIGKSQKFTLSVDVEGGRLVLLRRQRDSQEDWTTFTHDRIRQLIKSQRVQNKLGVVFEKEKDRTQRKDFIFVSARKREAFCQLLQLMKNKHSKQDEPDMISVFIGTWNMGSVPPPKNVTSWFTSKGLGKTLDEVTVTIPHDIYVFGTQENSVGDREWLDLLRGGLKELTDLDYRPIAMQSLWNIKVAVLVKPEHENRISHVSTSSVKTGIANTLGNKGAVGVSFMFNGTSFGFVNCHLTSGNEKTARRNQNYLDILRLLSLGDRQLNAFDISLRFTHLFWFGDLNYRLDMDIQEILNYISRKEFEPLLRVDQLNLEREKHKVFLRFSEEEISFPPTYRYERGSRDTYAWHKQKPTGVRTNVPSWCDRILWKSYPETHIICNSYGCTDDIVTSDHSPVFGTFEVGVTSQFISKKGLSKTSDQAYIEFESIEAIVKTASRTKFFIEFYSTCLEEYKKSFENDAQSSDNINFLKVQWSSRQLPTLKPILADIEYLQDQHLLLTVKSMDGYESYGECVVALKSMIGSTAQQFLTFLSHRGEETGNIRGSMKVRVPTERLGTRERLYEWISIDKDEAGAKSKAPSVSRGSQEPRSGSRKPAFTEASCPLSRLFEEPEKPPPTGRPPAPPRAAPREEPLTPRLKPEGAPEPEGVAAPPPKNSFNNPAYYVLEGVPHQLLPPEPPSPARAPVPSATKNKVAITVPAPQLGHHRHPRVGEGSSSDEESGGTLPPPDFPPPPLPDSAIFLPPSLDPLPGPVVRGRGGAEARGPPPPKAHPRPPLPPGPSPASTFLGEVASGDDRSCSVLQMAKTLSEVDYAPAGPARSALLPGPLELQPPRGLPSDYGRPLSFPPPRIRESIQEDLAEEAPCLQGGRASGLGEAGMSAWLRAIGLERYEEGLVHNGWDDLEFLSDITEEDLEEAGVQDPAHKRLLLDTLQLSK
UniProt O43837: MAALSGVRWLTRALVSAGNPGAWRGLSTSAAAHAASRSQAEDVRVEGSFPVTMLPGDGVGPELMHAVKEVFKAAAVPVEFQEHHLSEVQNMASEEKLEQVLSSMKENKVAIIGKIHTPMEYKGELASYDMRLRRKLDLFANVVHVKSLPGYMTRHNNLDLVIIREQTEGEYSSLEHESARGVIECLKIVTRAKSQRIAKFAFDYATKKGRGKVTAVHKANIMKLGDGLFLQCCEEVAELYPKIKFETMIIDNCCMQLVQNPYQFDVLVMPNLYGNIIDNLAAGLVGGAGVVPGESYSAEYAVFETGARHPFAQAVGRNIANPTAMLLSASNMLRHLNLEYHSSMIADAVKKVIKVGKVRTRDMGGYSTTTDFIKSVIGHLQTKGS
UniProt O94829: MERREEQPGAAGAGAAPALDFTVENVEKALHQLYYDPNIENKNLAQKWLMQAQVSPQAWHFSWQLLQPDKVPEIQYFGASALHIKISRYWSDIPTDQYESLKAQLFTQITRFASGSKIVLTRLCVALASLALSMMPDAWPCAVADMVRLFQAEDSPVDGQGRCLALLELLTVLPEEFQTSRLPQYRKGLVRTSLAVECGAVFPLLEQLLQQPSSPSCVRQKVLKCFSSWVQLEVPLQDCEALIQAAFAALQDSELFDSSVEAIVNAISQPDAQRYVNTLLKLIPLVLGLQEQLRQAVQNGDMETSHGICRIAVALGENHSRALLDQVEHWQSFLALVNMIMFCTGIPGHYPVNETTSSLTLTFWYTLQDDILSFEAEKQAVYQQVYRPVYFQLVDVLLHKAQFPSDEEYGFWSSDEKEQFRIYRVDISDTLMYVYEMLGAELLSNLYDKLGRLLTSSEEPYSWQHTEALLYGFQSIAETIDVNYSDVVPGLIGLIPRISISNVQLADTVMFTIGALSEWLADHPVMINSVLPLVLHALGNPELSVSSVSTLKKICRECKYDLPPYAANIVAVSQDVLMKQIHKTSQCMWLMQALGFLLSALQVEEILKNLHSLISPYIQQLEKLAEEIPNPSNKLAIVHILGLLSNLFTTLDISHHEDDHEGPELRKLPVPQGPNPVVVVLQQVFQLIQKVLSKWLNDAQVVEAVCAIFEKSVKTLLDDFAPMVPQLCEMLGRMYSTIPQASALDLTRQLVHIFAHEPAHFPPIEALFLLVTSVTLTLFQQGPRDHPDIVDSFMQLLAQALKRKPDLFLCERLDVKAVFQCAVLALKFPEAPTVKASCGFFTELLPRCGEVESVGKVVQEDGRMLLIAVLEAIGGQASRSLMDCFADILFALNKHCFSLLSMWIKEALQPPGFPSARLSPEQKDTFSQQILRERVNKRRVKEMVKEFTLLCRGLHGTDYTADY

The targets below were run with ClCC(=O)N[C@@H]1CCCc2ccccc12 (assay: log2 mean competition ratio of IA-DTB cysteine labelling (DMSO/compound) (log2 ratio); higher = stronger cysteine engagement by compound). Conditions: 50 µM; treatment time: 4 h; cell line lysate: HEK293T.
Experimental: (§1)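 IA-DTB competitive cysteine chemoproteomics in HEK293T RIPA lysate. Lysates were treated with compound 29 or 30 at 50 or 200 µM for 4 h, then IA-DTB (500 µM, 1 h), trypsin-digested, NeutrAvidin-enriched and analysed by diaPASEF. Competition ratio = intensity DMSO / intensity compound (n=4 treated, n=64 DMSO); binding: mean log2 CR ≥ 1 and p ≤ 0.05 plus QC filters. Target is the cysteine site.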

| Target | log2 mean competition ratio |
| --- | --- |
| HUWE1 C3658 | -0.44 |
| IDI1 C39 (UniProt Q13907) | -0.015 |
| IGF2R C1282 (UniProt P11717) | -0.0766 |
| HPF1 C152 (UniProt Q9NWY4) | 0.0707 |
| IFT140 C663 (UniProt Q96RY7) | 0.167 |
| HYOU1 C352 | -0.39 |
| HUWE1 C471 | 0.174 |
| IFNAR1 C426 (UniProt P17181) | -0.333 |
| INTS6 C264 (UniProt Q9UL03) | 0.286 |
| HUWE1 C1879 | 0.0101 |
| ICE1 C1254 (UniProt Q9Y2F5) | 0.131 |
| IL17RA C632 (UniProt Q96F46) | -0.37 |
| IARS2 C883 (UniProt Q9NSE4) | 0.0958 |
| INTU C692 (UniProt Q9ULD6) | 0.0349 |
| ILKAP C312 (UniProt Q9H0C8) | 0.181 |
| INPP5A C247 (UniProt Q14642) | -0.0678 |
| HPS6 C141 (UniProt Q86YV9) | -0.229 |
| HSPA1A;HSPA1B C306;(C306) | -0.41 |
| HSPH1 C650 | 0.0903 |

| Target | log2 mean competition ratio |
| --- | --- |
| HUWE1 C29 | -0.0544 |
| INTS11 C354 (UniProt Q5TA45) | 0.345 |
| IGF2R C1270 (UniProt P11717) | -0.205 |
| HSPD1 C442 (UniProt P10809) | -0.00593 |
| IARS2 C1005 (UniProt Q9NSE4) | -0.156 |
| ILK C428 (UniProt Q13418) | -0.00288 |
| HUS1 C44 (UniProt O60921) | 0.477 |
| IFIT5 C476 (UniProt Q13325) | -0.419 |
| IGF2BP1 C44 (UniProt Q9NZI8) | 0.0628 |
| HPF1 C29 (UniProt Q9NWY4) | -0.0791 |
| INPPL1 C215 (UniProt O15357) | 0.18 |
| HPS3 C52 (UniProt Q969F9) | 0.0702 |
| INTS7 C42 (UniProt Q9NVH2) | 0.0701 |
| IDH3B C185 (UniProt O43837) | -0.0851 |
| IKBKB C464 (UniProt O14920) | 0.175 |
| IPO13 C309 (UniProt O94829) | -0.0939 |
| HUWE1 C2666 | -0.0608 |
| HSP90AA1 C572 (UniProt P07900) | 0.0578 |

Same assay, conditions: 200 µM; treatment time: 4 h; cell line lysate: HEK293T

| Target | log2 mean competition ratio |
| --- | --- |
| HUWE1 C3658 | -0.094 |
| IDI1 C39 (UniProt Q13907) | -0.0415 |
| IGF2R C1282 (UniProt P11717) | 0.0229 |
| HPF1 C152 (UniProt Q9NWY4) | -0.558 |
| IFT140 C663 (UniProt Q96RY7) | 0.301 |
| HYOU1 C352 | -0.185 |
| HUWE1 C471 | 0.248 |
| IFNAR1 C426 (UniProt P17181) | -0.00993 |
| INTS6 C264 (UniProt Q9UL03) | 0.325 |
| HUWE1 C1879 | -0.0892 |
| ICE1 C1254 (UniProt Q9Y2F5) | 0.621 |
| IL17RA C632 (UniProt Q96F46) | -0.073 |
| IARS2 C883 (UniProt Q9NSE4) | 0.223 |
| INTU C692 (UniProt Q9ULD6) | 0.768 |
| ILKAP C312 (UniProt Q9H0C8) | -0.078 |
| INPP5A C247 (UniProt Q14642) | -0.386 |
| HPS6 C141 (UniProt Q86YV9) | -0.0572 |
| HSPA1A;HSPA1B C306;(C306) | -0.299 |
| HSPH1 C650 | 0.0631 |

| Target | log2 mean competition ratio |
| --- | --- |
| HUWE1 C29 | 0.241 |
| INTS11 C354 (UniProt Q5TA45) | 0.16 |
| IGF2R C1270 (UniProt P11717) | 0.0344 |
| HSPD1 C442 (UniProt P10809) | 0.213 |
| IARS2 C1005 (UniProt Q9NSE4) | -0.154 |
| ILK C428 (UniProt Q13418) | 0.111 |
| HUS1 C44 (UniProt O60921) | 0.367 |
| IFIT5 C476 (UniProt Q13325) | -0.106 |
| IGF2BP1 C44 (UniProt Q9NZI8) | -0.204 |
| HPF1 C29 (UniProt Q9NWY4) | 0.153 |
| INPPL1 C215 (UniProt O15357) | 0.0528 |
| HPS3 C52 (UniProt Q969F9) | -0.219 |
| INTS7 C42 (UniProt Q9NVH2) | 0.049 |
| IDH3B C185 (UniProt O43837) | -0.319 |
| IKBKB C464 (UniProt O14920) | 0.519 |
| IPO13 C309 (UniProt O94829) | 0.0246 |
| HUWE1 C2666 | -0.0281 |
| HSP90AA1 C572 (UniProt P07900) | 0.24 |

These targets were tested with ClCC(=O)N[C@H]1CCCc2ccccc12 in the same assay as above. Conditions: 50 µM; treatment time: 4 h; cell line lysate: HEK293T.
Experimental: as §1

| Target | log2 mean competition ratio |
| --- | --- |
| HUWE1 C3658 | 0.136 |
| IDI1 C39 (UniProt Q13907) | -0.059 |
| IGF2R C1282 (UniProt P11717) | -0.148 |
| HPF1 C152 (UniProt Q9NWY4) | 0.43 |
| IFT140 C663 (UniProt Q96RY7) | 0.0566 |
| HYOU1 C352 | -0.102 |
| HUWE1 C471 | 0.321 |
| IFNAR1 C426 (UniProt P17181) | -0.581 |
| INTS6 C264 (UniProt Q9UL03) | 1.19 |
| HUWE1 C1879 | 0.438 |
| ICE1 C1254 (UniProt Q9Y2F5) | -0.0552 |
| IL17RA C632 (UniProt Q96F46) | -0.119 |
| IARS2 C883 (UniProt Q9NSE4) | -0.15 |
| INTU C692 (UniProt Q9ULD6) | 0.126 |
| ILKAP C312 (UniProt Q9H0C8) | 0.0489 |
| INPP5A C247 (UniProt Q14642) | 0.00383 |
| HPS6 C141 (UniProt Q86YV9) | -0.217 |
| HSPA1A;HSPA1B C306;(C306) | -0.308 |
| HSPH1 C650 | 0.0377 |

| Target | log2 mean competition ratio |
| --- | --- |
| HUWE1 C29 | -0.198 |
| INTS11 C354 (UniProt Q5TA45) | 0.371 |
| IGF2R C1270 (UniProt P11717) | -0.416 |
| HSPD1 C442 (UniProt P10809) | 0.318 |
| IARS2 C1005 (UniProt Q9NSE4) | 0.437 |
| ILK C428 (UniProt Q13418) | -0.147 |
| HUS1 C44 (UniProt O60921) | 0.36 |
| IFIT5 C476 (UniProt Q13325) | -0.497 |
| IGF2BP1 C44 (UniProt Q9NZI8) | -0.00625 |
| HPF1 C29 (UniProt Q9NWY4) | -0.819 |
| INPPL1 C215 (UniProt O15357) | 0.000763 |
| HPS3 C52 (UniProt Q969F9) | -0.311 |
| INTS7 C42 (UniProt Q9NVH2) | -0.0857 |
| IDH3B C185 (UniProt O43837) | 0.28 |
| IKBKB C464 (UniProt O14920) | 0.513 |
| IPO13 C309 (UniProt O94829) | -0.182 |
| HUWE1 C2666 | -0.103 |
| HSP90AA1 C572 (UniProt P07900) | 0.208 |
